± gives the standard deviation. This is a selection; strong and weak results do not stand in their true shares. Many entries were measured with a wide error.
test system: MILI (PIWIL2) piRISC loaded with piRNA #2 (26 nt); assay: pre-steady-state target cleavage rate (min^-1); MIWI and MILI are mouse PIWI proteins and EfPiwi is from a freshwater sponge; tags in brackets are library labels; higher = faster piRNA-guided slicing of the target; conditions: guide: piRNA #2 5'p-UUAGGUAACCCAGUAGAUCCAGAGGA; auxiliary factor: 500 nM mouse GTSF1
How it was run: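 In this Cleave-'n-Seq assay, uncleaved targets were sequenced and normalised to depth and to weakly complementary targets. They came from a transcribed, DNA-blocked target RNA library […] mixed with 1 nM active affinity-purified piRISC carrying one synthetic guide, with or without 500 nM GTSF1 partner protein, in HEPES–potassium acetate buffer at 33 °C for 0–8 or 0–960 min. After three trials were pooled and k3 was capped at 0.0001 min^-1, the pre-steady-state cleavage rate was obtained from a burst-and-steady-state fit.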
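Further: 1 nM active piRISC with 0.1 nM target library at 33 °C single turnover.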

Sequence	pre-steady-state target cleavage rate
CUUAUCCUCUGGAACUACUGGGUUAGCUAA	0.0654 ± 0.021
CUUAAGGAGUGGAUCAACUGGGAUACCUAA	0.00147 ± 0.0075
CUUAAGGAGAGGAUCUACACCGUUACCUAA	0.000174 ± 0.021
CUUAAGGAGACGAUCUACUGCGUUACCAAA	0.000223 ± 0.016
CUUAAGGAGAGGAUCUACCUGGGUUACCUAA	0.00089 ± 0.0098
CUUAAGGAGACCUACUACUGGUGUUACCUAA	0.000484 ± 0.021
CUUAAGGACUGGUAUCUACUGGGUUACCUAA	0.00878 ± 0.0089
CUUAAGGAGACGAUCUACUUGGUUACCUAA	0.000764 ± 0.0092
CUUAAGGACUGGUUCUUCUGGGUUACCUAA	0.0097 ± 0.0098
CUUAAGGAGACCAUCUUCUGGGAUACCUAA	0.000628 ± 0.015
CUUAAGGAGAGGAUCACUGGGUUACCUAA	0.0011 ± 0.0079
CUUAACCUCUGGAUCUACUGGCUUACGUAA	0.000314 ± 0.025
CUUAAGCUCUGGAUCUACUGCGUUUCCUAA	0.00112 ± 0.0092
CUUAUCCUCUGGAUGUACUGGGUUACGUAA	0.0286 ± 0.0078
CUUAAGGACUGCAUCUACUGGGUUAGCUAA	0.00534 ± 0.0084
CUUAAGCUCUGGAUCUACUGCGUAACCUAA	0.00389 ± 0.006
CUUAAGGACUCCAUCUACUGGGUUACCUAA	0.00129 ± 0.0064
CUUAAGGUCUGGAACUACUGCGUUACCUAA	0.00453 ± 0.01
CUUAAGCUGUGGAUCUACUGGGUUUCCUAA	0.00403 ± 0.0056
CUUAAGGAGUGGAACUACUGGGUUAGCUAA	0.00253 ± 0.011
CUUAAGGAGACCAUCUACUGGGAUACCUAA	0.000736 ± 0.008
CUUAUACCUCUGGAUCUACUGGGUUACCUAA	0.251 ± 0.058
CUUAAGGAGACGUUCUACAGGGUUACCUAA	0.0028 ± 0.0034

Sequence	pre-steady-state target cleavage rate
CUUAUCCUCUGGAUCUACUGGGUUACGCUAA	0.174 ± 0.026
CUUAACCUCUGGAACUACUGGCUUACCUAA	0.00179 ± 0.0065
CUUAAGGACUGGAUCUACUGGGUUUCCUAA	0.00233 ± 0.011
CUUAAGGACUGGAACUACUGGGUUACCAAA	0.000534 ± 0.032
CUUAAGGACUGGAUGUACUGGGUUACGUAA	0.00599 ± 0.0084
CUUAAGGAGACGAUCUAGUGGGUUACCUUA	0.0012 ± 0.0086
CUUAAGGAGUGGAUGUACUGCGUUACCUAA	0.00339 ± 0.0062
CUUAACCUCUGGAUCUACUGGGUUUCCUUA	0.225 ± 0.066
CUUAAGGAGACGAUCUACUGGGAUACCUAA	0.000846 ± 0.0074
CUUAAGGAGAGGAUCUUCUGCGUUACCUAA	0.00104 ± 0.0073
CUUAACCUCUGGAUCUUCUGGGUAACCUAA	0.0414 ± 0.016
CUUAAGGAGACGAUCUACUGGCAUACCUAA	0.00013 ± 0.032
CUUAAGGAGAGGAUCUACUGCGUUACCUAA	0.0028 ± 0.0042
CUUAAGGACUGGAUCUACUGGGUAACCUAA	0.00568 ± 0.0083
CUUAAGGAGAGGAUCUAUGGGUUACCUAA	0.000925 ± 0.0094
CUUAAGGAGACCUUCUACUGGGGUACCUAA	< 0.0001
CUUAAGCUCUGCAUCUACUCGGUUACCUAA	0.0009 ± 0.0089
CUUAAGGACUGGAUCAACUGGGUUACCAAA	0.0038 ± 0.0099
CUUAAGGACUGGAACUACUGGGUUAGCUAA	0.00331 ± 0.013
CUUAAGGAGACCUUCUACUGGGUGACCUAA	0.000199 ± 0.027
CUUAAGGAGUCCAUCUACUGGGUUACCUAA	0.00123 ± 0.0051
CUUAAGGAGACCUUCUACUGCGUAACCUAA	0.000281 ± 0.02
CUUAAGGAGACCUAGAUGUGGGUUAACUAA	0.000413 ± 0.015

Sequence	pre-steady-state target cleavage rate
CUUAAGGACUGGAUACUACUGGGUUACCUAA	0.00387 ± 0.0093
CUUAUCCUCUGGUUCUACUGCGUUACCUAA	0.0261 ± 0.0078
CUUAAGGAGACGAUCUACUGUGGUUACCUAA	0.000747 ± 0.0091
CUUAAGGUCUGGAUCUACUGGCUUACCUUA	0.000539 ± 0.012
CUUAAGGAGACCUAGAUGACCCAUACCUAA	0.000114 ± 0.019
CUUAAGGAGACCUAGUGACUGGGUUACCUAA	0.000179 ± 0.051
CUUAAGCUCUCGAUCUACUGGGUUACCUAA	0.113 ± 0.019
CUUAAGGAGACCAUCUACUGAGGUUACCUAA	0.00114 ± 0.0076
CUUAAGGAGACCAUCUACUGGGUUACCUCA	0.000712 ± 0.011
CUUAAGGAGAGGAUCGACUGGGUUACCUAA	0.00355 ± 0.0063
CUUAACGUCUGGAUCUACUGGCUUACCUAA	0.00146 ± 0.0084
CUUAAGGAGACCAUCUACGUGGGUUACCUAA	0.000495 ± 0.018
CUUAAGGAGACCUUCUACUCCGUUACCUAA	0.000343 ± 0.026
CUUAACCUCUGGAUCUACUGGGUUACCUUA	0.111 ± 0.026
CUUAAGGAGACCUACUACUGGGUUUACCUAA	0.000549 ± 0.014
CUUAAGGAGAGGAUAUACUGGGUUACCUAA	0.00364 ± 0.0039
CUUAAGCUCUGGAUCUACUCGGUUACCAAA	0.00146 ± 0.0074
CUUAAGGAGACGAAUCUACUGGGUUACCUAA	0.00134 ± 0.0062
CUUAAGGAGACCAUCUACUGAGUUACCUAA	0.00246 ± 0.0054
CUUAAGGAGACGAUCUACUGGGAAUCCUAA	0.000278 ± 0.018
CUUAAGGAGUGGUUCUACUGGGUUACGUAA	0.000827 ± 0.01
CUUAUCCUCUGGAUCUACUGGCUUACCAAA	0.00073 ± 0.011
CUUAAGGAGUGGAUCUACUUGGGUUACCUAA	0.000828 ± 0.0091

Sequence	pre-steady-state target cleavage rate
CUUAAGGAGACGAUCUAGUGGGUUACCUAA	0.00154 ± 0.0044
CUUAAGGAGACCUAGAUCUUGGGUUACCUAA	0.00055 ± 0.013
CUUAAGGACUGGUUCUACUGGGUUACGUAA	0.00215 ± 0.014
CUUAAGGAGACGAUCUUCUGGCUUACCUAA	0.000681 ± 0.0072
CUUAACCUCUGGGUCUACUGGGUUACCUAA	0.169 ± 0.029
CUUAAGGAGUCGAUCUACUGGGUAACCUAA	0.00162 ± 0.0098
CUUAAGGAGACCUAGAUGUGGGUAACCUUA	0.000247 ± 0.033
CUUAAGGAGAGGUAGUACUGGGUUACCUAA	0.000574 ± 0.014
CUUAAGGAGAGGUUCUACUGGGAUACCUAA	0.00148 ± 0.0039
CUUAAGGAGACCUUCUACUGCGUUACCUAA	0.000801 ± 0.013
CUUAAGGAGACCUAGAUGAGGGUUACCUAG [g2:g11:cont:t1G]	0.00048 ± 0.02
CUUAAGGACUGGAUUACUGGGUUACCUAA	0.000819 ± 0.034
CUUAAGGUCACCAUCUACUGGGUUACCUAA	0.000945 ± 0.0085
CUUAAGGUCAGGAUCUACUGGGAUACCUAA	0.00648 ± 0.0073
CUUAAGGAGACGAUCAACUGCGUUACCUAA	0.000538 ± 0.011
CUUAAGGAGACCUUCUACUGGGUUACCAUAA	0.000495 ± 0.022
CUUAAGGAGACCAUCUAGUGGCUUACCUAA	0.000284 ± 0.016
CUUAAGGAGAGGAUUACUGGGUUACCUAA	0.00101 ± 0.01
CUUAUCCUCUGGAUCUACUCCCAAUGGAUA [g12:g26:cont:t1A]	0.000398 ± 0.019
CUUAAGGUCUGGAUCUAGCUGGGUUACCUAA	0.000358 ± 0.016
CUUAACCUCUGGCAUCUACUGGGUUACCUAA	2.04 ± 1.1
CUUAACCUCUGGAUCUACUCGGUUACGUAA	0.000248 ± 0.046

A second format for some results above.
CUUAUCCUCUGGAUGUACUGGGUUACGUAA
  pre-steady-state target cleavage rate = 0.0286 ± 0.0078
CUUAAGGACUGCAUCUACUGGGUUAGCUAA
  pre-steady-state target cleavage rate = 0.00534 ± 0.0084
CUUAAGCUCUGGAUCUACUGCGUAACCUAA
  pre-steady-state target cleavage rate = 0.00389 ± 0.006
CUUAAGGACUCCAUCUACUGGGUUACCUAA
  pre-steady-state target cleavage rate = 0.00129 ± 0.0064

From the supplement of paper PMC10338343
